Measurements published in publication PMC7485968 (2020).
Results are given in words; binding and its absence hold for the method and conditions named. For some of these results: In cells and extracts the contact can be indirect. Some entries that bind do so weakly or less than the wild type. Sequences can lack the tags named with a protein.

B1: FLAG-GST-EWS 1-355aa (protein)
chain: MASTDYSTYSQAAAQQGYSAYTAQPTQGYAQTTQAYGQQSYGTYGQPTDVSYTQAQTTATYGQTAYATSYGQPPTGYTTPTAPQAYSQPVQGYGTGAYDTTTATVTTTQASYAAQSAYGTQPAYPAYGQQPAATAPTRPQDGNKPTETSQPQSSTGGYNQPSLGYGQSNYSYPQVPGSYPMQPVTAPPSYPPTSYSSTQPTSYDQSSYSQQNTYGQPSSYGQQSSYGQQSSYGQQPPTSYPPQTGSYSQAPSQYSQQSSSYGQQSSFRQDHPSSMGVYGQESGGFSGPGENRSMSGPDNRGRGRGGFDRGGMSRGGRGGGRGGMGSAGERGGFNKPGGPMDEGPDLDLGPPVDPD
B2: FLAG-GST-EWS 459-656aa (protein)
chain: PPREGRGMPPPLRGGPGGPGGPGGPMGRMGGRGGDRGGFPPRGPRGSRGNPSGGGNVQHRAGDWQCPNPGCGNQNFAWRTECNQCKAPKPEGFLPPPFPPPGGDRGRGGPGGMRGGRGGLMDRGGPGGMFRGGRGGDRGGFRGGRGMDRGGFGGGRRGGPGGPPGPLMEQMGGRRGGRGGPGKMDKGEHRQERRDRPY

Key:
His-tagged ERG [1] = biological target: T1, His-tagged ERG (Homo sapiens (Human), UniProt P11308); assay: pull-down; purified His-ERG on cobalt beads (His-tag isolation dynabeads) as bait; 14 ug PC3 nuclear extract, 2 hrs at 4 degrees, NP-40 lysis buffer (250 mM NaCl); DMSO or Hit compounds A-D (62.5 uM; Hit B also 60, 45, 30 uM) added afterwards; EWS immunoblot; only the target purified
T1 chain: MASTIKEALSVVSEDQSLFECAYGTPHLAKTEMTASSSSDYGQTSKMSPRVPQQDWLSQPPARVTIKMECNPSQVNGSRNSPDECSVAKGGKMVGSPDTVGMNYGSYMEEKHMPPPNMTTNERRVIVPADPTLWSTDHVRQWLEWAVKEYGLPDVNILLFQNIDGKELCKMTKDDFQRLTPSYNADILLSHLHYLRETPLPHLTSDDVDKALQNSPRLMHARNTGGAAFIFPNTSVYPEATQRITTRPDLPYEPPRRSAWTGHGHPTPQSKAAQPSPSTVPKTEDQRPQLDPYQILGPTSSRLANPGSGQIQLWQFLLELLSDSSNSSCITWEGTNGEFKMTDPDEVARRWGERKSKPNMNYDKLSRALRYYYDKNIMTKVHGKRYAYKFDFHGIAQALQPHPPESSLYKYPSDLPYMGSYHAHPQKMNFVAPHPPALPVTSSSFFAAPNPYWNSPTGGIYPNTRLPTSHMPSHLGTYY

His-tagged ERG [2] = biological target: T1, His-tagged ERG; assay: pull-down; purified His-ERG conjugated to cobalt beads (His-tag isolation dynabeads) as bait; purified FLAG-GST-EWS proteins pulled down; FLAG immunoblot; both purified
His-tagged ERG [3] = biological target: T1, His-tagged ERG; assay: AlphaScreen or HTRF; AlphaScreen; His-ERG on nickel chelate acceptor beads, GST-tagged EWS 1-355aa on glutathione donor beads; cross titration 100, 30, 10, 3, 0 nM of each protein, 0.4 ug beads per well; 1x PBS + 0.5% BSA, room temperature; both purified

| Molecule | binding (His-tagged ERG [1]) | binding (His-tagged ERG [2]) | binding (His-tagged ERG [3]) |
| --- | --- | --- | --- |
| native full-length EWS (from UniProt Q01844 1-656) | binds |  |  |
| B1 |  | binds | binds |
| B2 |  | no binding |  |
